Screen size: about 53,000 sequences; about 3,700 (7%) were called active.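 How the source made its calls: active means gene knockdowns whose robust z-score for IL-1 alpha signal is at least 2 or at most -2, so actives lie on both sides; inactive means the rest.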 Some of the results follow.

The nature of the assay: Components of the Cytosolic LPS Sensing Pathway: Gene Identification via Genome-wide siRNA Screen.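 Further: robust z of the log signal after scaling to non-targeting control siRNA wells of the plate.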 Conditions: RAW264.7 macrophages, IL-1a HTRF, actives lie on both sides, screened at 100 nM (by protocol), cells primed 5 h with Pam3CSK4 first. Summed up: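 Knockdown: 100 nM siRNA, 48h, RAW264.7. Stimulation: Pam3CSK4 5 h, then LipidA via TransIT-TKO 24 h. Output: supernatant IL-1a HTRF, negative-control-normalized, log robust z-score; viability by CellTiter-Glo.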
For the sequence GGUUUCUUCAUCUUGUAUUTT against Gjd4, the z-score is inactive: 0.184. Turning to GGUACUACAAGCUAGCUGUTT against Scd4, the z-score is inactive: -0.114. GCCGUUUUAAGAUACCGAUTT against Pde1c: the z-score was inactive: 0.642. As for GGACACAGGACUCUACACCTT against Psg16, the figure is inactive: 0.293; as for GCGUGUGAAGGCAACCAUUTT against Nos3, inactive: -1.84; as for GCGAUAUUAACUAUGGAGATT against Gpr149, inactive: -0.601.

In the case of GGACGACAACGACAUCAUGTT against Sfrp2, the z-score was inactive: 0.475. Regarding GCACGGAUUAAUGUGAUGATT against Ilk, the z-score is inactive: 0.406. Take GCCGUAUGGAGCCAUAGCUTT against Tes: the z-score was inactive: -1.25.

For “CCAUUGCACUGCGCCAACATT against 1700001O22Rik”, the z-score is inactive: -0.478. On to CCUGAACAUAAAGUUUACUTT against Catsper4, for which the z-score is inactive: 0.209.

Consider GGUACAAACUGUUACAUUUTT against Col12a1, for which the z-score is inactive: 1.13. Turning to “GCCUAAGUUCUAGCAAAAUTT against Spata31d1d”, the z-score is inactive: 0.514. As for GGAUCUUCUGCCGUCUUGATT against Creb5, the z-score was inactive: -0.201. Take CGACUUGGGUUUUCACGGCTT against Arsb: the z-score was inactive: -1.47. As for GGAAAAAAAGCAAAUGAUCTT against Ndufa10, the figure is inactive: -0.738. Next, GGUGGAGAUGGAAAUUGUCTT against Lmod2: inactive: 1.61; GGACUGGAAAAUCGGCUUCTT against Scnn1a: inactive: -0.161. GGGACUUUGAGUCUAACAATT against Pnliprp1: the z-score was inactive: -0.876. As for GCAGUUCUGGUUCUGUCUGTT against Nudcd3, the figure is inactive: -0.203. Regarding GCAAUGGAUACAGGACCUUTT against Nupr1, the z-score was inactive: 0.593. As for GGAUUUGAAGUCACUCAUUTT against Nubp1, the figure is inactive: -0.725. Next, GCCAACCUGAAACCAUCUATT against Ptprg: inactive: 0.0567.

GGAUGAACUUAGCUACCCATT against Slc25a20: the z-score is inactive: -1.46. Next, GGUUCAAAUGUUGCAUAGUTT against Klrc2: inactive: 0.597; GGACAUGGAGAAAAAGUACTT against Styk1: inactive: 0.547; GCCAACGAAAAAUGACCUCTT against Wnt2: inactive: -0.046. Take GGACUCCAAGAAUUUAACATT against Fbxo22: the z-score was inactive: -0.73. As for GAAGCUGUCCAAGUACGAGTT against Atoh7, the figure is inactive: -0.299; as for CCAAUCAGGUUGAAUAAGATT against Prr14, inactive: -0.528. As for GCCCAAAGGUCAAGGAUAUTT against Rptn, the figure is inactive: -0.036; as for GGGAGUCAAGCUGUUUGCUTT against Col7a1, inactive: 0.633. As for CGAUUCAUCUGUGUUCGUGTT against Adgrb1, the figure is inactive: 1.18; as for GGAUGUUGGCAGCCGAACATT against St3gal2, inactive: -0.684; as for CCCAGUAUUUUGGAACUAUTT against Napsa, inactive: 1.49. CCCACUGGUGUACGUGAUCTT against Bdkrb2: the z-score is active: 2.21. Next, GGGCCAUGGAAUUGUAAGATT against Mobp: inactive: -0.0128; “GGGUUUUGGGAUAAAUAACTT against D030056L22Rik”: inactive: -0.111; GGCAAACCUGCAAACAUCUTT against Prss52: inactive: 0.962. As for GGAAACUGGCAGUUUGGGUTT against Slc35a1, the figure is inactive: -0.367.

For GCAGCUCCAUACCAAUUCCTT against Phf8-ps, the z-score was inactive: 0.238. Next, GGAAUUGUCCCGGAAGAGGTT against Zc3hc1: inactive: -0.62; “CCAGACUCAUAAUGUUAAUTT against 9430077A04Rik”: inactive: -1.13; CCUUUAAUUUCACUGUUACTT against Gabarapl2: inactive: 0.269. Next, CGAUCAAGGAUCUUAAGAUTT against Aox4: inactive: -1.13. As for CCUGCCUGACACAUUGUGATT against Ntan1, the figure is inactive: -1.64; as for GGUUGUAAGUGUCUUAAAGTT against Pdcd6ip, inactive: 0.438. Take GACUGAAACACUCAAAGCCTT against Cox7b2: the z-score is inactive: -0.138.

For GGAAUGAUGAUGUCUCAUATT against Prpf40a, the z-score is inactive: -0.327. Turning to CCAAUAACAGGAUUGAGAATT against Tnfrsf8, the z-score is inactive: -0.528. As for “GCCGUUUGUACCUUGUCAGTT against 4933430I17Rik”, the figure is active: -3.01.

In the case of GGAACUUCUGGUAAGUUUGTT against Ints7, the z-score is inactive: 0.37. GGAUCAAUGCCCGACUACATT against Phf14: the z-score is inactive: 0.281. As for GGUGAUUGCAUACCUAUGATT against Irs4, the figure is inactive: 0.614.

For the sequence GGAAAAAGAGGAUGAGUGCTT against Gm4861, the z-score is active: 2.01. As for GGAUCAAAGCUCCGGUAUATT against Farsb, the figure is inactive: -0.589.

As to GGGCAUCUUCUGCUACUUCTT against Slc8b1, the z-score was inactive: -0.935. As for CGUAGAUCUUUCAUUUGUCTT against Tgds, the figure is inactive: 1.12. Regarding GGAAGUGUUUCACGUGGAATT against Uhrf1, the z-score was inactive: 0.542. Next, GGUUCAAAGCUAUCCACUUTT against Rlbp1: inactive: -0.527; CCAUACGAUGACUGAAUUCTT against Olfr1186: inactive: 0.545. For GCAUAAGGUUUGUGACAUUTT against Wrnip1, the z-score was inactive: -1.49.

“GGAGCUCCUUUACUGAAGGTT against 3110070M22Rik”: the z-score is inactive: 0.339.

On to GGAGUCUUCGAAAAUUGAGTT against Pmfbp1, for which the z-score was inactive: -1.73. As for GGAGAUUUUGGUGGCUAUUTT against Uqcrfs1, the figure is inactive: -1.1.

In the case of GCAAGCGAUGGCACAUAGATT against Ap1g2, the z-score is inactive: 1.03. As for GGGACUUUUUUUGAAUCCUTT against Ndrg3, the figure is inactive: -0.238; as for GGCGAAGUGUCAUUGUAUUTT against Foxd3, inactive: -0.0201; as for GGAACUCACAACUAUGAGCTT against Pla2g10, inactive: 0.206. As for GGAGCAUCGAUCUUGAUUCTT against Sh3tc2, the figure is inactive: 1.79. Next, GGUAGUUUGAAAUGCUAACTT against St6gal2: inactive: 1.84.

With GCUUAACAACUACGAGCCCTT against Dot1l, the z-score was inactive: -0.284. Next, GCCAAACUGCGUCUGAAUGTT against Rras: inactive: 0.62; GGUGACAAUUCAAAACUCATT against Fgf18: inactive: 0.427; GGCAUUUCUUCCAGAUAUUTT against Il1r1: inactive: -0.31. Next, GGAGAAAAGAUAUGCUAUGTT against Appl2: inactive: 1.89.

For the sequence GGGCAAAGGUCAGUACUUGTT against Col8a2, the z-score is inactive: 0.386.

Regarding GGAGGUCUACGACCUGAAUTT against Rbfa, the z-score was inactive: 0.877. As for GGAUAGAUACUGUACUAAUTT against Med21, the figure is inactive: 1.24. For the sequence GGGAGAUAGGCAUUUGAUGTT against Arid3a, the z-score was inactive: -0.3. As for GGUACUAGGCCUGAUCUUGTT against Josd2, the figure is inactive: 1.93; as for GGGUAGGAGGAAAGUGUUCTT against Olfr1093, inactive: 1.55.

Take GGGAUGUUUAUUGUGUUCCTT against Tuba1a: the z-score was inactive: 1.63. Regarding CCAUAAAUCACUCAGUUUGTT against Adad1, the z-score is inactive: 0.222. As for GGUUGCACUACUAAGUGUCTT against Sdr16c5, the z-score was inactive: -1.08. Next, CGCAUAUCAAAACUCAGAATT against Mtm1: inactive: -0.487; GGAUGAUAUUGAAAGUCUGTT against Me2: inactive: 0.512; GGUCAAGAAGAACAAGCUGTT against Ucn3: inactive: -0.509. As for CGGUUACCACCUCACAUUCTT against Cgnl1, the z-score is inactive: -0.167. As for GCUUAACCGUUUUUUCAAATT against Tgif1, the figure is inactive: 0.764; as for GGCUAUUUGUAUGCUGGAATT against Usp54, inactive: -0.246.

In the case of GGCUACGUAGGACAUGACUTT against Best3, the z-score is inactive: -1.94. As to GGAACCACAUGACUUCAGCTT against Dynlt1b, the z-score was inactive: 0.272. For GAAGACGAACUCUACCAGGTT against Izumo1r, the z-score is inactive: 1.2.

In the case of CCCUCUCUUUUAUAGAUGATT against Ap3s2, the z-score is inactive: 1.1. With GCCGCUCUGUACUUUGUCUTT against Eva1a, the z-score was inactive: 1.04. Take CCCACCACUUUCCGAAAAUTT against Pacrg: the z-score is inactive: 0.596. As for GGGUACCAGAUGAUCCAAATT against Prmt6, the figure is inactive: -0.233.

On to CGAGAUGUACCUUGAUACUTT against Idh3a, for which the z-score is inactive: 1.44.

As to GGUGCAGAAUAUUGAAUGUTT against Fam185a, the z-score is inactive: -0.829. As for GGAAUUUAUCAAGGUCAUGTT against Ethe1, the figure is inactive: -0.426; as for CCUGCUAAAGGCUUCUCAATT against Elobl, inactive: 0.139. For the sequence CGUUGUUCAAAGAUUCUCCTT against Klrg2, the z-score was inactive: 0.123. For the sequence GGUUUUCUGGUCCAUUAUATT against Olfr741, the z-score was inactive: -1.86. As for GCUGAAGACACUCUGUGAATT against Ehbp1l1, the figure is inactive: -1.7; as for GCCUUGAUUCGCAUAAUGATT against Neurl4, inactive: -1.16.

Values taken from PubChem BioAssay AID1508600 (Functional Genomics Laboratory (NCATS/FGL), 2020).
